Results are given in words; binding and its absence hold for the method and conditions named. Some binding calls cover weakened binding; strength is not graded here. Sequences can lack the tags named with a protein.
Target: integrin αIIbβ3 on αIIbβ3-CHO cells (human) (UniProt P08514+P05106)
Assay: flow cytometry on cells; CHO, β3-CHO, αIIbβ3-CHO or α4-CHO cells in HEPES-Tyrodes buffer/0.02% BSA, 1 mM Ca2+, incubated with or without the CD62P lectin domain (50 or 100 μg/ml) 30 min on ice, then with FITC-labeled ligand 30 min at room temperature; only the binder purified

By UniProt entry, the sequences of proteins in these tests, tags left out. Where a name states a change or a piece, a line headed by the entry shows the natural chain unless it says otherwise.
UniProt P08514: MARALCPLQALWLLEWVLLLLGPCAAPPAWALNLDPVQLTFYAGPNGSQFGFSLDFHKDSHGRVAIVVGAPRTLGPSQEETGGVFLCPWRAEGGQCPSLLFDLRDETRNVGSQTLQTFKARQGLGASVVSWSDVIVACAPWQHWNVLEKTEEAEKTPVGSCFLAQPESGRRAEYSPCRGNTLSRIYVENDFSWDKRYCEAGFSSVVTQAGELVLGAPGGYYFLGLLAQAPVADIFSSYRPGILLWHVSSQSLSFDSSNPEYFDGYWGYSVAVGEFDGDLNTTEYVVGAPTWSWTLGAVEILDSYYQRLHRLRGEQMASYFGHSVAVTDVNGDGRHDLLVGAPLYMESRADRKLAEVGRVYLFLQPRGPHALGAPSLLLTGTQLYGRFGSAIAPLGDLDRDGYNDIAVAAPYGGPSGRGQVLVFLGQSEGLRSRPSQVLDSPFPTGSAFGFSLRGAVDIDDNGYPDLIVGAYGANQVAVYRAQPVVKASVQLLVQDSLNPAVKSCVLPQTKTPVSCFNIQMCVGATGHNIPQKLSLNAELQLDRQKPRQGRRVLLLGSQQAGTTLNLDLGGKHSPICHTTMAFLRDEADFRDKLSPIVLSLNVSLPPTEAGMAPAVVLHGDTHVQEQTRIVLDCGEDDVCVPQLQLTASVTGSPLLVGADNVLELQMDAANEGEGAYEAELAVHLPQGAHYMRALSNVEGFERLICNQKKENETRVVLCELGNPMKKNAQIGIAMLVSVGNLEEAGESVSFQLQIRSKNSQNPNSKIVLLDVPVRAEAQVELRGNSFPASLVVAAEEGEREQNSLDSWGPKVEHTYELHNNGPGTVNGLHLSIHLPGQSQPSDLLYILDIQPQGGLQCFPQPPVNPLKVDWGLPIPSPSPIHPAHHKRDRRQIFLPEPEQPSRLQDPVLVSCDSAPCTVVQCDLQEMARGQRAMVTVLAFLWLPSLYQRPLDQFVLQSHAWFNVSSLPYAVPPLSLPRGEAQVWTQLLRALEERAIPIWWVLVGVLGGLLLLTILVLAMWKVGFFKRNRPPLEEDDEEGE
UniProt P05106: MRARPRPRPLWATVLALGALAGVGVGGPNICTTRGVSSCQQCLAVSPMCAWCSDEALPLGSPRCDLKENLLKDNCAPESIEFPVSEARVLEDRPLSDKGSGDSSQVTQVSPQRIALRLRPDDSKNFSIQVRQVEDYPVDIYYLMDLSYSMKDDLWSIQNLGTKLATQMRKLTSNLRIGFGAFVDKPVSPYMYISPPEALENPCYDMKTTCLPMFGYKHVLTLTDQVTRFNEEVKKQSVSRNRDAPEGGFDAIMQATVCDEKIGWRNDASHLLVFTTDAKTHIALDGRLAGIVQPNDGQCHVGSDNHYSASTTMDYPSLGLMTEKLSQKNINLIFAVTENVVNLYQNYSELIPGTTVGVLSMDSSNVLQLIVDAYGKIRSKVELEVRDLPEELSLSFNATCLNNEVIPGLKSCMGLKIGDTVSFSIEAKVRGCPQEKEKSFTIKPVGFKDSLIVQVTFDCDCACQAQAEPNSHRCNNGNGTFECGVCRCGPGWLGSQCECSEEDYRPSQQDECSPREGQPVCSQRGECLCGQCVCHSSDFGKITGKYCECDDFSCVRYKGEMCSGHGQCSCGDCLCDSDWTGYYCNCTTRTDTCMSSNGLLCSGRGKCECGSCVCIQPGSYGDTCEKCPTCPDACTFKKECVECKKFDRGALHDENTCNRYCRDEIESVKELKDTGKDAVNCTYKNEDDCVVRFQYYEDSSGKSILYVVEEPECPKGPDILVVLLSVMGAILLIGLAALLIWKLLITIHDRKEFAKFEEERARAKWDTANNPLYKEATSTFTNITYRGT

binding: binds
Binder: NRLTIGEGQQHHLGGAKQAGDV (FITC-labeled in the flow cytometry assay only) [fibrinogen γ-chain C-terminal residues 390–411 fused to GST (γC390-411)]

Source: publication PMC10130748
